Measurements as given in PubChem BioAssay AID2685 (National Center for Advancing Translational Sciences (NCATS), 2010).
Some of the results follow. These are further read-outs of the screen, such as a control signal, another cell line or another target. No call is given for them. Most of these compounds were active or inconclusive in the main read-out, so they are no random draw. Words in brackets tell the shape of the fitted curve; partial curves, single points and poor fits give uncertain potencies.

Test: qHTS Assay for Lipid Storage Modulators in Drosophila S3 Cells;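 on cell number change: cells counted by Cell Tracker Red CMTPX staining in the red channel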
Details: BODIPY lipid droplet fluorescence, 18-24 h; for cell number change: measured here: cell count max response, cells fed with added oleic acid
Summary of the method: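 Drosophila S3 cells got compounds at several concentrations plus oleic acid (400 uM solution). Laser-scanning cytometry with 488 nm excitation read lipid droplets at 500-530 nm and cells at 575-640 nm. Percent activity was relative to 20 uM Triacsin C.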

[1] = measured here: cell number channel AC50, cells fed with added oleic acid
[2] = measured here: lipid fluorescence (Fed channel) AC50, cells fed with added oleic acid

CN(C)c1ccc(Nc2nc(-c3cccnc3)cs2)cc1
cell number change: 49.8%
AC50 [1]: 14.6 µM [rising, partial curve]

CN(C)S(=O)(=O)c1ccc(Cl)c(C(=O)Nc2nc3ccccc3[nH]2)c1
AC50 [1]: 6.51 µM [rising, single point]

Cc1ccc(/C=N/NC(=O)CN2CCN(Cc3ccccc3Cl)CC2)o1
cell number change: 23.1%
AC50 [2]: 1.64 µM [rising, full curve]

O=C(Cc1ccccn1)c1ccccc1
cell number change: 14.1%
AC50 [2]: 4.61 µM [rising, full curve]

CCCOc1ccccc1C(=O)NC(CO)C(=O)O (stereo unspecified)
cell number change: -14.9%
AC50 [2]: 0.259 µM [falling, full curve, poor fit]

Cc1nn(-c2ccccc2)c(C)c1C(=O)OCC(=O)Nc1ccccc1F
cell number change: 4.65%
AC50 [1]: 3.66 µM [rising, partial curve]
AC50 [2]: 3.26 µM [rising, partial curve]

COCCCNC(=O)c1ccccc1N(Cc1ccccc1)S(=O)(=O)c1ccc(OC)cc1
cell number change: -5.41%

O/C(=C\c1ccc2ccccc2n1)c1ccncc1
cell number change: -32.7%
AC50 [1]: 10.3 µM [falling, partial curve]
AC50 [2]: 3.26 µM [rising, partial curve, poor fit]

COc1cc(/C=C2/NC(=O)N(CC(=O)Nc3cccc(C)c3)C2=O)ccc1OCC(N)=O
AC50 [2]: 18.4 µM [falling, single point]

Cc1cc(C)cc(NC(=O)NCc2nnc(SCc3ccccc3)n2C)c1
cell number change: 12.1%
AC50 [2]: 18.4 µM [rising, single point]

C=CCNC(=O)C(=O)NN=C1CCN(C)CC1
cell number change: -3.29%
AC50 [2]: 23.1 µM [falling, partial curve]

COc1ccccc1CNS(=O)(=O)c1ccc(Br)s1
cell number change: -3.65%
AC50 [2]: 29.1 µM [falling, single point]

Cc1ccc(Cl)cc1NC(=O)C1CCCCC1C(=O)O (stereo unspecified)
AC50 [2]: 29.1 µM [falling, partial curve, poor fit]

CC(C)Cn1cc(C(=O)NCCCN2CCCC2=O)c2c3ccccc3n(C)c2c1=O
cell number change: -4.14%

CCOC(=O)c1sc2nc(CSc3ccccc3)nc(N3CCC(C(N)=O)CC3)c2c1C
cell number change: 11.3%
AC50 [2]: 6.51 µM [falling, partial curve, poor fit]

CCCCn1c(N)c(N(CC(C)C)C(=O)c2oc3ccc(OC)cc3c2C)c(=O)[nH]c1=O
cell number change: 66.7%
AC50 [1]: 10.3 µM [rising, partial curve]

CC(OC(=O)c1ccc(Cl)cc1)C(=O)NCc1ccc2c(c1)OCO2 (stereo unspecified)
cell number change: -1.68%
AC50 [2]: 29.1 µM [rising, single point]
